From the supplement of paper PMC10849652
The other results are listed elsewhere or left out.

Chains of the proteins cited; added tags and fusions are not shown. Lines headed by an entry give the natural chain unless they say otherwise; changes in a name come on top.
UniProt Q9BRY0: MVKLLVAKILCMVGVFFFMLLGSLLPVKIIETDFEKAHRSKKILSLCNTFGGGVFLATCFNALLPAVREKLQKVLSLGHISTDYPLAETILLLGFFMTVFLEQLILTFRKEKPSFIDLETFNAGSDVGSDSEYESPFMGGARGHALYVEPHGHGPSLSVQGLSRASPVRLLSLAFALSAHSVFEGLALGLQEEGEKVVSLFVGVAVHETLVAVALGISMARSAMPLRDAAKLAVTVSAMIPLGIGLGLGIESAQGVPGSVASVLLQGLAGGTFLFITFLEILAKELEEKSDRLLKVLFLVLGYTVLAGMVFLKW
UniProt Q9Y289: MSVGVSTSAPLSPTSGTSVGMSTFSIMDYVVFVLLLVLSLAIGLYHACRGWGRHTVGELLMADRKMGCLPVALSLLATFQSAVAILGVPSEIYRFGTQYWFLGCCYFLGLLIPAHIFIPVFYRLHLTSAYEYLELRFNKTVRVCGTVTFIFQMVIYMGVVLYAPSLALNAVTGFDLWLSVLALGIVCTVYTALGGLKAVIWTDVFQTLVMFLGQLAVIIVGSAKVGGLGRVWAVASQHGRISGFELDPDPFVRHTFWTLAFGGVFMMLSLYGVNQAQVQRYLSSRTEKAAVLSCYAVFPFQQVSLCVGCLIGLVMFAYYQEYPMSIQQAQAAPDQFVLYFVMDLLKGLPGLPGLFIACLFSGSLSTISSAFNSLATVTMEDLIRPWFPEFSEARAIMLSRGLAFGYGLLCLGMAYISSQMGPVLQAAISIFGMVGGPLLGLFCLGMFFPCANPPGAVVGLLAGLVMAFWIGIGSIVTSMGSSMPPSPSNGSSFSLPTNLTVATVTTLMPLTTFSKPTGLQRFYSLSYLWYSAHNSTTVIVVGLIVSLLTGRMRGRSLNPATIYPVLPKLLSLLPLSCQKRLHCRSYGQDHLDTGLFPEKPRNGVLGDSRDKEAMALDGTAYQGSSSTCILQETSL
UniProt Q9Y6M7: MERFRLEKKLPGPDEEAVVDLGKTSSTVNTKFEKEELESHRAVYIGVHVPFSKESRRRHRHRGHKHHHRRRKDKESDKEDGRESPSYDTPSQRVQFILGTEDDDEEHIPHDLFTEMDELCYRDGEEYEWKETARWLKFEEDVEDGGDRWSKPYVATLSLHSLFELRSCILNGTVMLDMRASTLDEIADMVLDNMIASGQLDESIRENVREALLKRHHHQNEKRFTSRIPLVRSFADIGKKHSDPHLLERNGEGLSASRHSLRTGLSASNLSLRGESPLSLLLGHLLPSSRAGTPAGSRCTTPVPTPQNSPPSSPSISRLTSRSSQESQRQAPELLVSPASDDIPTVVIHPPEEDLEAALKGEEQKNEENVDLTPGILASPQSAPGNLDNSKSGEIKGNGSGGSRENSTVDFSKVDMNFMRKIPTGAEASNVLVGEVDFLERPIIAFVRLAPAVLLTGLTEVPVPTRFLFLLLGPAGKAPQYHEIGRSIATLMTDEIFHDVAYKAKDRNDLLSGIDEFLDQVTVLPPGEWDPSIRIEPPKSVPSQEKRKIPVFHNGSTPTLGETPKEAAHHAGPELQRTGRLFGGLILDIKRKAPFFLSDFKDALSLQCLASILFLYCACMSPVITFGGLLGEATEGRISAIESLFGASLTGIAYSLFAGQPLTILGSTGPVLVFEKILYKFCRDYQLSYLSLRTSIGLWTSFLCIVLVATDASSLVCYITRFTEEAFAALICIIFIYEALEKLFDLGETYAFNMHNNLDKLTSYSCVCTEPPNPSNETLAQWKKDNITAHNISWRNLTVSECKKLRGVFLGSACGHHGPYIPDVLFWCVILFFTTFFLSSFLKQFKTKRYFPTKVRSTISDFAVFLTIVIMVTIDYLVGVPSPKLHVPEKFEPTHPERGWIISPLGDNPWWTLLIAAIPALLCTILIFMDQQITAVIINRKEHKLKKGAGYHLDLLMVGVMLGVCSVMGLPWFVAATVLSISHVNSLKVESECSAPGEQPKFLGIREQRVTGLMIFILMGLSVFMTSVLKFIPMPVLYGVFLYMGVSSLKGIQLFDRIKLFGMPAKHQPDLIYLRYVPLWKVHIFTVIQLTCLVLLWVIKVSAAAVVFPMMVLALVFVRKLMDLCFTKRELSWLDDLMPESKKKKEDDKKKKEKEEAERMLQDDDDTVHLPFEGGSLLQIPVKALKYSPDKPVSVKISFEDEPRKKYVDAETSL
UniProt Q6PML9: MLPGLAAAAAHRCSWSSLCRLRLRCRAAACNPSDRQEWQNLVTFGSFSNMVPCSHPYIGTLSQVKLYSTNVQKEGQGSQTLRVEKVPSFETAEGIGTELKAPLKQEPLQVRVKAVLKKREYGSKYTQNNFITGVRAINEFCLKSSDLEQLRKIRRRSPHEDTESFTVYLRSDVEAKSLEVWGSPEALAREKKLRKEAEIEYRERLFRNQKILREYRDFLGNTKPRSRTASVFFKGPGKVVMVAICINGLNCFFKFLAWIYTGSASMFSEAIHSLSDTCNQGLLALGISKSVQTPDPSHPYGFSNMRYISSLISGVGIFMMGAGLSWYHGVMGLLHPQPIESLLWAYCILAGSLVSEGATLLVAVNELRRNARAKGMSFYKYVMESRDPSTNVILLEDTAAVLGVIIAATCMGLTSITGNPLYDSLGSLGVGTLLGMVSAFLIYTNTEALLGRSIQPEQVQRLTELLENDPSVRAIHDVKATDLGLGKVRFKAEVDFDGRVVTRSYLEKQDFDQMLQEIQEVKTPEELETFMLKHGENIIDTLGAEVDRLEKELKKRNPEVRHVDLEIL
UniProt Q8TB61: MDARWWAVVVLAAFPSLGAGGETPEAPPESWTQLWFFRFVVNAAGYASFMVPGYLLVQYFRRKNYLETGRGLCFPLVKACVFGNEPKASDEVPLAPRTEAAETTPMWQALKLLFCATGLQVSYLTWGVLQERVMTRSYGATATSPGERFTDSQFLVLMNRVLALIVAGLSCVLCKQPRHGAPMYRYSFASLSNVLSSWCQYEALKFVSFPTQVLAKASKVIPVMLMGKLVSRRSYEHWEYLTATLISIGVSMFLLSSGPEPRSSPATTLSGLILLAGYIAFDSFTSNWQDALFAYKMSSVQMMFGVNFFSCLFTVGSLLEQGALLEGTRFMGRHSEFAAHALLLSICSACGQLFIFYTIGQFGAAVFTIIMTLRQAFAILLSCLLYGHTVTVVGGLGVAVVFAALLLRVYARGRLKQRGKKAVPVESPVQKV
UniProt Q86VD7: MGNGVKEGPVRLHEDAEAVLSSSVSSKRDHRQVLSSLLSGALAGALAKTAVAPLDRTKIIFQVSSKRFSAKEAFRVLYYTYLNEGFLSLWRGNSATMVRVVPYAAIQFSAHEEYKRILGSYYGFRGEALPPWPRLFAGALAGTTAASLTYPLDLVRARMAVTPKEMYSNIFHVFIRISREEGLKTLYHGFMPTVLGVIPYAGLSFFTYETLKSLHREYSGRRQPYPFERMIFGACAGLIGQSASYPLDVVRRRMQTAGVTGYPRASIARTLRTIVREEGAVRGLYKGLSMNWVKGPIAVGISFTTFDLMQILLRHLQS
UniProt Q96DW6: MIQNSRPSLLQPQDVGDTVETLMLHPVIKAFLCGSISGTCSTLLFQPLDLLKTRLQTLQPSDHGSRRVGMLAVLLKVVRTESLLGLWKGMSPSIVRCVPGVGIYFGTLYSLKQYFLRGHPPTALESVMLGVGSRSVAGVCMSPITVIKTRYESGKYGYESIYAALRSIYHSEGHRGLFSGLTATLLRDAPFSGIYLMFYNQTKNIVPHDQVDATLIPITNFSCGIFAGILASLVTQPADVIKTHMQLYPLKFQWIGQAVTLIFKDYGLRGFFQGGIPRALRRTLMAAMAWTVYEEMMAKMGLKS
UniProt Q6XR72: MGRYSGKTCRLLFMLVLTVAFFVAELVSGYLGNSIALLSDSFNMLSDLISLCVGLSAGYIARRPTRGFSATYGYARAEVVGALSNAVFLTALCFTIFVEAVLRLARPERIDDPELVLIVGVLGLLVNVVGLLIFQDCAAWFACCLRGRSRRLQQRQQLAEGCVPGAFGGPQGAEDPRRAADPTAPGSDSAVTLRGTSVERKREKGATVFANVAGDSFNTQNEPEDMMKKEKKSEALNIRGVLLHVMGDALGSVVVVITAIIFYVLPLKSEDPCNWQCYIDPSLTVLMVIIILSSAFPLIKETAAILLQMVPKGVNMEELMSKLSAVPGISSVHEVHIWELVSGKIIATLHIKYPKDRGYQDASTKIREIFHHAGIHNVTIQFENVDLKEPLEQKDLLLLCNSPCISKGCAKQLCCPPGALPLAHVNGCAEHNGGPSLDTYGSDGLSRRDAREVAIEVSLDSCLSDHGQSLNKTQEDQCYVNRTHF
UniProt Q9ULF5: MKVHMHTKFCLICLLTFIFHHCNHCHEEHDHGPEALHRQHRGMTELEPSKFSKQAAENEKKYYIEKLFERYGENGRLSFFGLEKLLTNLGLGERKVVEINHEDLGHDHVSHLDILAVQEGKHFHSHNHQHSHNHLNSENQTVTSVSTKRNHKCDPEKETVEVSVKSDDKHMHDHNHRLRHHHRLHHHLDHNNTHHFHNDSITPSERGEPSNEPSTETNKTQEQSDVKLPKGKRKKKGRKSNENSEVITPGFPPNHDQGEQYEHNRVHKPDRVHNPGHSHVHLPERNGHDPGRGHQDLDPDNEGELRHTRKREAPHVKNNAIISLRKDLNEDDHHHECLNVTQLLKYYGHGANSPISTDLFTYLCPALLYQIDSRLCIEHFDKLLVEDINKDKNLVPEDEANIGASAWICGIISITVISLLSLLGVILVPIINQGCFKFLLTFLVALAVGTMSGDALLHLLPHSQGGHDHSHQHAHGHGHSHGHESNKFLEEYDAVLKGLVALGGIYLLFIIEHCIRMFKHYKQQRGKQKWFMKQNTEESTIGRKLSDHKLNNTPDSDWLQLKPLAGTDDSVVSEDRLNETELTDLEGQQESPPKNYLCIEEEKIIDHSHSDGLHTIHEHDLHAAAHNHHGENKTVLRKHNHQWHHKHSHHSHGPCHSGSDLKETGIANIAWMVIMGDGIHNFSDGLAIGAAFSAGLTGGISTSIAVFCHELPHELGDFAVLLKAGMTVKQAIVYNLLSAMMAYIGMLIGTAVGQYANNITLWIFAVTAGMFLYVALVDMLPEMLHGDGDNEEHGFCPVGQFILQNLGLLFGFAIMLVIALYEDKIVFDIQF
UniProt Q8N357: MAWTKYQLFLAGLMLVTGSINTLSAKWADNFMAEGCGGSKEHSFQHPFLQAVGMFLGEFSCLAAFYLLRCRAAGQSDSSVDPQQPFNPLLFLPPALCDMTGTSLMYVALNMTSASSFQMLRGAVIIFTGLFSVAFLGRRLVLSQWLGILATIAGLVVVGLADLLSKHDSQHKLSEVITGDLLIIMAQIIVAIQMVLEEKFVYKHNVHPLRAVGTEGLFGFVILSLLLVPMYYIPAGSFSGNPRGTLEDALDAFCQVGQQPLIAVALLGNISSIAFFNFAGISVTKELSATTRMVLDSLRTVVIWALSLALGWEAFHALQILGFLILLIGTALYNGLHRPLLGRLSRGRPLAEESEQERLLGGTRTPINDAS
UniProt P19634, whole entry, looked up: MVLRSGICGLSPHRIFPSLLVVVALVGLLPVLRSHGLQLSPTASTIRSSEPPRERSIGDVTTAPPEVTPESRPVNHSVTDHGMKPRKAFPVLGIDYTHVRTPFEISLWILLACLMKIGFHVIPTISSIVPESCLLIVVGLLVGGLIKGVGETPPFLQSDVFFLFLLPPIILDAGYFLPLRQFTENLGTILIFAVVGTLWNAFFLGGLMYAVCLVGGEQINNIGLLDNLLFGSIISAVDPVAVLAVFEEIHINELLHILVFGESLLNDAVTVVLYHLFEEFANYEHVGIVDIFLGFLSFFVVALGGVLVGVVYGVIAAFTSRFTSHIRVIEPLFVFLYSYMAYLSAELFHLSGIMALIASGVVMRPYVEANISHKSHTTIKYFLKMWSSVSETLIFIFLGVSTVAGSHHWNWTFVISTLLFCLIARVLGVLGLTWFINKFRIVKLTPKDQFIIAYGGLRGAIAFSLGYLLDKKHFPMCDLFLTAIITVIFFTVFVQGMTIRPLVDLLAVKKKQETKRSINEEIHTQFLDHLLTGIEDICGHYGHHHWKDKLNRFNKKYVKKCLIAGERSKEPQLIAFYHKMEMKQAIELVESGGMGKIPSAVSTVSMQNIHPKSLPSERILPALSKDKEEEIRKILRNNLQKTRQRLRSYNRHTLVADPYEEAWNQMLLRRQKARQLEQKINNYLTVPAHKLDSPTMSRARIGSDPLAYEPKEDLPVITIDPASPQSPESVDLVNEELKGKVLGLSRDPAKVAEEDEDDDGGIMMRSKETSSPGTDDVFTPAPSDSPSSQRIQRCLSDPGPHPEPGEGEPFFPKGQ
UniProt Q9UBX3: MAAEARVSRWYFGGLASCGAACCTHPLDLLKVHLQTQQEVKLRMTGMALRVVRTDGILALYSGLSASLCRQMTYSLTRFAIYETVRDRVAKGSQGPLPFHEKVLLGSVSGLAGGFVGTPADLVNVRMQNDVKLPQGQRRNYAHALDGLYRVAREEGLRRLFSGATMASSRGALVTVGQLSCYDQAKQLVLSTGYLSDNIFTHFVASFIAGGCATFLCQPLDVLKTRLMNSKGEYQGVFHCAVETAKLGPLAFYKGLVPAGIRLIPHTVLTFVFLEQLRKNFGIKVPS

Columns and labels:
Experiment in all cases: log2 fold change, soluble protein after heating vs DMSO (PISA); higher = thermal stabilisation; K562 lysate, 10 uM; active = over 0.2 and 3.5 SD of the protein, either way, in both replicates (recomputed)
alvocidib = compound: CN1CC[C@H](c2c(O)cc(O)c3c(=O)cc(-c4ccccc4Cl)oc23)[C@H](O)C1 [alvocidib]
Outline: (§1)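 K562 pellets were dounce-homogenised in PBS pH 7.4 with 1 mM MgCl2, and the crude extract at 1 mg/mL protein was treated with 10 μM compound for 30 min. Aliquots were heated for 3 min across 48°C-58°C, pooled, and brought to 0.5% NP-40 at 4°C; soluble protein was the supernatant after 21,000xg for 90 min. Soluble protein was quantified by TMTpro 16plex LC-MS/MS with channel sums equalised, and reported as log2 fold change in thermal stability against DMSO controls, with values from duplicates.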

Tubastatin A = compound: CN1CCc2c(c3ccccc3n2Cc2ccc(C(=O)NO)cc2)C1 [Tubastatin A]
Outline: as §1

[1] = compound: CNC(=O)C1=CC=CC=C1NC2=NC(=NC=C2Cl)NC3=C(C=C(C=C3)N4CCOCC4)OC
Outline: as §1

defactinib = compound: CNC(=O)c1ccc(Nc2ncc(C(F)(F)F)c(NCc3nccnc3N(C)S(C)(=O)=O)n2)cc1 [defactinib]
Outline: as §1

[2] = compound: CNc1nc(-c2ccc3c(N)n[nH]c3c2)cc(N2C[C@@H](C(=O)NC3CCCCC3)CC[C@H]2C)n1
Outline: as §1

encorafenib = compound: COC(=O)N[C@@H](C)CNc1nccc(-c2cn(C(C)C)nc2-c2cc(Cl)cc(NS(C)(=O)=O)c2F)n1 [encorafenib]
Outline: as §1

[3] = compound: COC(=O)[C@H](CCSC)NC(=O)C1=C(C=C(C=C1)NC[C@H](CS)N)C2=CC=CC=C2
Outline: as §1

alisertib = compound: COc1cc(Nc2ncc3c(n2)-c2ccc(Cl)cc2C(c2c(F)cccc2OC)=NC3)ccc1C(=O)O [alisertib]
Outline: as §1

[4] = compound: COc1cc2nc(-c3cc(F)ccc3O)nc(N[C@@H]3CNC[C@H]3C(C)(C)O)c2cc1OC
Outline: as §1

gefitinib = compound: COc1cc2ncnc(Nc3ccc(F)c(Cl)c3)c2cc1OCCCN1CCOCC1 [gefitinib]
Outline: as §1

lapatinib = compound: CS(=O)(=O)CCNCc1ccc(-c2ccc3ncnc(Nc4ccc(OCc5cccc(F)c5)c(Cl)c4)c3c2)o1 [lapatinib]
Outline: as §1

pictilisib = compound: CS(=O)(=O)N1CCN(Cc2cc3nc(-c4cccc5[nH]ncc45)nc(N4CCOCC4)c3s2)CC1 [pictilisib]
Outline: as §1

crizotinib = compound: C[C@@H](Oc1cc(-c2cnn(C3CCNCC3)c2)cnc1N)c1c(Cl)ccc(F)c1Cl [crizotinib]
Outline: as §1

[5] = compound: C[C@H](C1=CC=C(C=C1)C(=O)NC2=C3C=CNC3=NC=C2)N
Outline: as §1

duvelisib = compound: C[C@H](Nc1ncnc2nc[nH]c12)c1cc2cccc(Cl)c2c(=O)n1-c1ccccc1 [duvelisib]
Outline: as §1

gandotinib = compound: Cc1cc(Nc2cc(CN3CCOCC3)c3nc(C)c(Cc4ccc(Cl)cc4F)n3n2)n[nH]1 [gandotinib]
Outline: as §1

tozasertib = compound: Cc1cc(Nc2cc(N3CCN(C)CC3)nc(Sc3ccc(NC(=O)C4CC4)cc3)n2)n[nH]1 [tozasertib]
Outline: as §1

doramapimod = compound: Cc1ccc(-n2nc(C(C)(C)C)cc2NC(=O)Nc2ccc(OCCN3CCOCC3)c3ccccc23)cc1 [doramapimod]
Outline: as §1

bafetinib = compound: Cc1ccc(NC(=O)c2ccc(CN3CC[C@H](N(C)C)C3)c(C(F)(F)F)c2)cc1Nc1nccc(-c2cncnc2)n1 [bafetinib]
Outline: as §1

[6] = compound: Cc1cccc(CC(=O)N2CCc3c2ccc(-c2cn(C)c4ncnc(N)c24)c3F)n1
Outline: as §1

| Target | log2 fold change (alvocidib) | log2 fold change (Tubastatin A) | log2 fold change [1] | log2 fold change (defactinib) | log2 fold change [2] | log2 fold change (encorafenib) | log2 fold change [3] | log2 fold change (alisertib) | log2 fold change [4] | log2 fold change (gefitinib) | log2 fold change (lapatinib) | log2 fold change (pictilisib) | log2 fold change (crizotinib) | log2 fold change [5] | log2 fold change (duvelisib) | log2 fold change (gandotinib) | log2 fold change (tozasertib) | log2 fold change (doramapimod) | log2 fold change (bafetinib) | log2 fold change [6] |
| --- | --- | --- | --- | --- | --- | --- | --- | --- | --- | --- | --- | --- | --- | --- | --- | --- | --- | --- | --- | --- |
| SLC6A8 (UniProt P48029) | inactive: -0.115 | inactive: -0.02 | inactive: 0.033 | inactive: 0.004 | inactive: 0.03 | inactive: 0.058 | inactive: -0.027 | inactive: 0.012 | inactive: -0.012 | inactive: -0.018 | inactive: -0.033 | inactive: 0.013 | inactive: 0.103 | inactive: -0.242 | inactive: -0.004 | inactive: 0.103 | inactive: 0.004 | inactive: -0.001 | inactive: -0.035 | inactive: 0.116 |
| SLC39A3 (UniProt Q9BRY0) | inactive: -0.017 | inactive: -0.068 | inactive: 0.091 | inactive: -0.017 | inactive: -0.048 | inactive: -0.02 | inactive: -0.039 | inactive: -0.015 | inactive: -0.009 | inactive: 0.005 | inactive: 0.032 | inactive: 0.006 | inactive: 0 | inactive: -0.104 | inactive: -0.012 | inactive: 0.025 | inactive: 0.01 | inactive: 0.028 | inactive: -0.033 | inactive: 0.002 |
| SLC5A6 (UniProt Q9Y289) | inactive: -0.111 | inactive: 0.054 | inactive: -0.004 | inactive: -0.03 | inactive: 0.024 | inactive: 0.015 | inactive: -0.059 | inactive: -0.029 | inactive: 0.039 | inactive: 0.034 | inactive: -0.018 | inactive: -0.062 | inactive: -0.001 | inactive: 0.087 | inactive: 0.027 | inactive: 0.002 | inactive: 0.003 | inactive: -0.025 | inactive: -0.034 | inactive: 0.012 |
| SLC5A3 (UniProt P53794) | inactive: 0.002 | inactive: -0.053 | inactive: 0.069 | inactive: 0.018 | inactive: 0.046 | inactive: 0.021 | inactive: -0.01 | inactive: -0.025 | inactive: 0.029 | inactive: 0.038 | inactive: 0.008 | inactive: -0.087 | inactive: -0.017 | inactive: 0.141 | inactive: 0.022 | inactive: -0.011 | inactive: 0.004 | inactive: 0 | inactive: 0.013 | inactive: -0.06 |
| SLC4A7 isoform 7 (UniProt Q9Y6M7) | inactive: 0.053 | inactive: 0.008 | inactive: -0.011 | inactive: -0.013 | inactive: -0.03 | inactive: 0.026 | inactive: -0.051 | inactive: 0.01 | inactive: -0.041 | inactive: -0.006 | inactive: 0.007 | inactive: -0.016 | inactive: -0.019 | inactive: 0.081 | inactive: 0.047 | inactive: -0.112 | inactive: 0.009 | inactive: -0.041 | inactive: -0.042 | inactive: -0.078 |
| SLC37A4 isoform 2 (UniProt O43826) | inactive: -0.126 | inactive: -0.051 | inactive: -0.112 | inactive: -0.015 | inactive: 0.02 | inactive: 0.045 | inactive: -0.047 | inactive: 0.004 | inactive: 0.039 | inactive: -0.026 | inactive: 0 | inactive: -0.05 | inactive: -0.014 | inactive: -0.18 | inactive: 0.023 | inactive: 0.158 | inactive: 0.045 | inactive: 0.06 | inactive: -0.023 | inactive: 0.186 |
| SLC30A9 (UniProt Q6PML9) | inactive: 0 | inactive: 0.022 | inactive: 0.002 | inactive: 0.064 | inactive: 0.023 | inactive: 0.032 | inactive: 0.05 | inactive: -0.008 | inactive: -0.079 | inactive: -0.01 | inactive: -0.007 | inactive: -0.054 | inactive: -0.043 | inactive: -0.423 | inactive: 0.048 | inactive: 0.008 | inactive: -0.003 | inactive: 0.036 | inactive: -0.161 | active: 0.312 |
| SLC35B2 (UniProt Q8TB61) | inactive: 0.003 | inactive: -0.002 | inactive: 0.045 | inactive: -0.001 | inactive: 0.062 | inactive: 0.007 | inactive: 0.044 | inactive: -0.017 | inactive: 0.012 | inactive: 0.011 | inactive: -0.011 | inactive: -0.003 | inactive: 0.033 | inactive: -0.063 | inactive: 0.008 | inactive: 0.044 | inactive: -0.007 | inactive: -0.019 | inactive: 0.04 | inactive: 0.029 |
| SLC25A42 (UniProt Q86VD7) | inactive: -0.026 | inactive: 0.051 | inactive: 0.041 | inactive: -0.048 | inactive: -0.019 | inactive: 0.099 | inactive: 0 | inactive: -0.012 | inactive: -0.048 | inactive: -0.081 | inactive: 0.02 | inactive: -0.009 | inactive: -0.076 | inactive: -0.051 | inactive: -0.039 | inactive: 0.034 | inactive: 0 | inactive: -0.009 | inactive: -0.019 | inactive: 0.079 |
| SLC25A38 (UniProt Q96DW6) | inactive: -0.062 | inactive: 0.014 | inactive: -0.049 | inactive: 0.074 | inactive: 0.06 | inactive: -0.038 | inactive: 0.321 | inactive: 0.044 | inactive: 0.097 | inactive: 0.094 | inactive: -0.093 | inactive: -0.026 | inactive: -0.044 | inactive: -0.072 | inactive: 0.173 | inactive: -0.055 | active: 0.391 | inactive: -0.024 | inactive: -0.025 | inactive: 0.112 |
| SLC30A10 (UniProt Q6XR72) | inactive: 0.091 | inactive: 0.07 | inactive: 0.151 | inactive: 0.039 | inactive: 0.132 | inactive: -0.01 | inactive: -0.118 | inactive: -0.066 | inactive: 0.009 | inactive: -0.009 | inactive: -0.057 | inactive: -0.024 | inactive: -0.005 | inactive: -0.156 | inactive: 0.015 | inactive: -0.348 | inactive: 0.048 | inactive: 0.004 | inactive: 0.07 | inactive: 0.25 |
| SLC39A10 (UniProt Q9ULF5) | inactive: -0.059 | inactive: -0.025 | inactive: 0 | inactive: 0.039 | inactive: -0.066 | inactive: -0.001 | inactive: -0.037 | inactive: 0.016 | inactive: 0.011 | inactive: 0 | inactive: 0.009 | inactive: 0.008 | inactive: 0.073 | inactive: -0.003 | inactive: -0.003 | inactive: -0.003 | inactive: 0.009 | inactive: -0.003 | inactive: 0.02 | inactive: -0.027 |
| SLC35F6 (UniProt Q8N357) | inactive: -0.05 | inactive: 0.115 | inactive: 0.022 | inactive: 0.014 | inactive: 0.03 | inactive: 0.064 | inactive: -0.05 | inactive: 0.052 | inactive: -0.001 | inactive: 0.011 | inactive: -0.04 | inactive: -0.044 | inactive: 0.053 | inactive: -0.004 | inactive: -0.022 | inactive: -0.15 | inactive: 0.096 | inactive: 0.024 | inactive: -0.075 | inactive: 0.133 |
| SLC33A1 (UniProt O00400) | inactive: 0.024 | inactive: 0.009 | inactive: -0.001 | inactive: -0.006 | inactive: 0.09 | inactive: 0.026 | inactive: -0.047 | inactive: 0.06 | inactive: -0.009 | inactive: 0.039 | inactive: -0.005 | inactive: -0.013 | inactive: 0.028 | inactive: -0.035 | inactive: 0.018 | inactive: 0.069 | inactive: 0.006 | inactive: -0.017 | inactive: -0.009 | inactive: 0.004 |
| SLC9A1 (UniProt P19634) | inactive: 0.004 | inactive: 0.176 | inactive: 0.038 | inactive: -0.039 | inactive: 0.028 | inactive: -0.007 | inactive: -0.037 | inactive: 0.012 | inactive: 0.029 | inactive: -0.133 | inactive: -0.065 | inactive: -0.026 | inactive: 0.024 | inactive: 0.019 | inactive: 0.028 | inactive: 0.069 | inactive: 0.069 | inactive: -0.001 | inactive: -0.054 | inactive: 0.089 |
| SLC25A10 isoform 2 (UniProt Q9UBX3) | inactive: -0.009 | inactive: -0.004 | inactive: 0.045 | inactive: 0.012 | inactive: 0.046 | inactive: 0.022 | inactive: 0.008 | inactive: 0.004 | inactive: 0.001 | inactive: -0.056 | inactive: 0.008 | inactive: 0.014 | inactive: -0.021 | inactive: -0.013 | inactive: -0.001 | inactive: 0.009 | inactive: 0.002 | inactive: -0.026 | inactive: -0.042 | inactive: -0.017 |

Part of the list above, reformatted:
Target | log2 fold change (alvocidib) | log2 fold change (Tubastatin A) | log2 fold change [1] | log2 fold change (defactinib) | log2 fold change [2] | log2 fold change (encorafenib) | log2 fold change [3] | log2 fold change (alisertib) | log2 fold change [4] | log2 fold change (gefitinib) | log2 fold change (lapatinib) | log2 fold change (pictilisib) | log2 fold change (crizotinib) | log2 fold change [5] | log2 fold change (duvelisib) | log2 fold change (gandotinib) | log2 fold change (tozasertib) | log2 fold change (doramapimod) | log2 fold change (bafetinib) | log2 fold change [6]
SLC30A10 (UniProt Q6XR72) | inactive: 0.091 | inactive: 0.07 | inactive: 0.151 | inactive: 0.039 | inactive: 0.132 | inactive: -0.01 | inactive: -0.118 | inactive: -0.066 | inactive: 0.009 | inactive: -0.009 | inactive: -0.057 | inactive: -0.024 | inactive: -0.005 | inactive: -0.156 | inactive: 0.015 | inactive: -0.348 | inactive: 0.048 | inactive: 0.004 | inactive: 0.07 | inactive: 0.25
SLC39A10 (UniProt Q9ULF5) | inactive: -0.059 | inactive: -0.025 | inactive: 0 | inactive: 0.039 | inactive: -0.066 | inactive: -0.001 | inactive: -0.037 | inactive: 0.016 | inactive: 0.011 | inactive: 0 | inactive: 0.009 | inactive: 0.008 | inactive: 0.073 | inactive: -0.003 | inactive: -0.003 | inactive: -0.003 | inactive: 0.009 | inactive: -0.003 | inactive: 0.02 | inactive: -0.027
